Structures were worked out from names or drawings and are uncertain.
Biological target: RET G810R (Homo sapiens (Human), UniProt P07949, G810R)
Experiment: HTRF KinEASE-TK kinase activity test, RET G810R
Details: read-out: RET G810R IC50; HTRF kinase assay

Sequences of proteins named here, by UniProt entry; tags and fusion partners are left off. Residues count along the entry.
UniProt P07949, 29-1114 G810R limits assumed: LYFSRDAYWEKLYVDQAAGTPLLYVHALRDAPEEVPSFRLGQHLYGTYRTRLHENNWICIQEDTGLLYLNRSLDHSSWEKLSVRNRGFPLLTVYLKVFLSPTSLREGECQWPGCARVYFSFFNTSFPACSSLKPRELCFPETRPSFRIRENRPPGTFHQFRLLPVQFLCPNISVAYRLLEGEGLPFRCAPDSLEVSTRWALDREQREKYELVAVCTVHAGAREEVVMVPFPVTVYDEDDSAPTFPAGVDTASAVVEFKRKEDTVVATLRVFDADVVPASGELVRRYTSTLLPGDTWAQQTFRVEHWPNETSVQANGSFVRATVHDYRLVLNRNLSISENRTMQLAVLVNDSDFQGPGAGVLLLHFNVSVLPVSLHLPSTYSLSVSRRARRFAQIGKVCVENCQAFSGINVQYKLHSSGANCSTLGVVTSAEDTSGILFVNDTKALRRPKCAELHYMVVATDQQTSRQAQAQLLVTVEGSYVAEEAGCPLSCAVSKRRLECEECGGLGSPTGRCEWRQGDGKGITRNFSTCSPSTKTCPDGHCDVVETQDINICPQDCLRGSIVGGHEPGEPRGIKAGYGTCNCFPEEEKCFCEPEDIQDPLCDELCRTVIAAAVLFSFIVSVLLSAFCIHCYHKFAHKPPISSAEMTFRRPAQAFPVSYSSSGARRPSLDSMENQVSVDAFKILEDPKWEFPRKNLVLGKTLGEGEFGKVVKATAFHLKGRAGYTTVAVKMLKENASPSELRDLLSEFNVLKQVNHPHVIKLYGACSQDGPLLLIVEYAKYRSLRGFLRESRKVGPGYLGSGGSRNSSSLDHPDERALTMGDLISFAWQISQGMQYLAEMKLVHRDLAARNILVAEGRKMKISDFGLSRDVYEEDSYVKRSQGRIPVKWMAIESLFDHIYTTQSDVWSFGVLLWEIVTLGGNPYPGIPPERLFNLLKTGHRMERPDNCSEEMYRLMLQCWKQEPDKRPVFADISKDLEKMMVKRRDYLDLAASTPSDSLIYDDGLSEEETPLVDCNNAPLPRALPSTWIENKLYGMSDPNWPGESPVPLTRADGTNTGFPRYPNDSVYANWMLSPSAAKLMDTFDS

Compound: CCOc1cc(-c2ccc(N3CC4CC(C3)N4Cc3ccc(S(C)(=O)=O)cc3)nc2)c2c3cn[nH]c3nn2c1
- IC50: 4.7 nM

Reference: patent publication US20240174674A1, “NITROGEN-CONTAINING POLYCYCLIC FUSED RING COMPOUND, PHARMACEUTICAL COMPOSITION THEREOF, PREPARATION METHOD THEREFOR, AND USE THEREOF” (APPLIED PHARMACEUTICAL SCIENCE, INC., priority 2021, published 2024)
